Laboratory results as given in publication PMC7299723.
Read-outs that look alike come from different tables or passages of the source. Results are given in words; binding and its absence hold for the method and conditions named. In cells and extracts the contact can be indirect. These calls come from enrichment with a bait or labelling near it, and not all partners need be listed. Blank lines part the entries; values can stand above or below the molecule they belong to.

Protein sequences, listed by entry. Tags and fused reporters are not part of them.
UniProt P63018: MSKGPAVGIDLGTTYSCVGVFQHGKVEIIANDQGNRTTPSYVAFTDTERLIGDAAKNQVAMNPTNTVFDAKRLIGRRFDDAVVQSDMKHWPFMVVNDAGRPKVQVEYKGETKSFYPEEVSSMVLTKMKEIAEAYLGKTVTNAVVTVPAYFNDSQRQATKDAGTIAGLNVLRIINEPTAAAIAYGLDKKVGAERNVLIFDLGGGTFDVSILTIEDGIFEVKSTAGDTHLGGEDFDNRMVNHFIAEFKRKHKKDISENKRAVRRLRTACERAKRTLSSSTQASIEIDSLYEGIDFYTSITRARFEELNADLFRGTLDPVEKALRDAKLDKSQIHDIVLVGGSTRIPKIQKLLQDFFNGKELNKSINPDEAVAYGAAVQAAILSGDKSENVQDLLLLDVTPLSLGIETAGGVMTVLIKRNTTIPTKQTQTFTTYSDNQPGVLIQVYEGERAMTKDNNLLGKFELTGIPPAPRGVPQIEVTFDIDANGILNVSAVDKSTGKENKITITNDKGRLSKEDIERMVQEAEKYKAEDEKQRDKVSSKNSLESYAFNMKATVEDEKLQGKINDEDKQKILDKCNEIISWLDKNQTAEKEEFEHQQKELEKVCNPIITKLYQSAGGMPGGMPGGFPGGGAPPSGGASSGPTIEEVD

Experiments:
[1] = target: T1, Zinc‐α2‐glycoprotein (rat (endogenous in primary cortical neurons)) (UniProt Q63678); assay: affinity purification with mass spectrometry; immunoprecipitation with anti-ZAG antibody (mouse IgG as control) from extracts of cultured rat cortical neurons, Protein A/G agarose, SDS-PAGE, in-gel digestion, TripleTOF 5600; 3 independent experiments
T1 sequence: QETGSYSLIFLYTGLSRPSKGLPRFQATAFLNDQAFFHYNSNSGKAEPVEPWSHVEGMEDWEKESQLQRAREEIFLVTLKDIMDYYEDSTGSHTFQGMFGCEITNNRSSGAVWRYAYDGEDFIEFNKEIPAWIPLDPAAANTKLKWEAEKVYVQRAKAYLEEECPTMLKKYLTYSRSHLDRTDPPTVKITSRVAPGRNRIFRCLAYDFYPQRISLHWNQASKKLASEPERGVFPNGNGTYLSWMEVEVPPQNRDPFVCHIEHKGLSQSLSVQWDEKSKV

[2] = target: T1, Zinc‐α2‐glycoprotein (rat (endogenous in primary cortical neurons)); assay: as above; remark: listed apart in the source

- binding [1]: binds
Molecule: heat shock cognate protein 70 (from UniProt P63018 1-646)

- binding [2]: binds
B1: four β‐subunits of long‐chain L‐3‐hydroxyacyl‐CoA dehydrogenase (enzyme, UniProt Q60587 35-475)
chain: SAPAVQTKSKKTLAKPNLKNIVVVEGVRIPFLLSGTSYKDLMPHDLARAALSGLLYRTNIPKDVVDYIIFGTVIQEVKTSNVAREAALGAGFSDKTPAHTVTMACISSNQAMTTAVGLIASGQCDVVVAGGVELMSDVPIRHSRNMRKMMLDLNKAKTLAQRLSLLTKFRLNFLSPELPAVAEFSTNETMGHSADRLAAAFAVSRMEQDKYALRSHSLAKKAQDEGHLSDIVPFKVPGKDTVSKDNGIRPSSLEQMAKLKPAFIKPYGTVTAANSSFLTDGASAMLIMSEDRALAMGYKPKAYLRDFIYVSQDPKDQLLLGPTYATPKVLEKAGLTMNDIDAFEFHEAFSGQILANFKAMDSDWFAQNYMGRKTKVGAPPLEKFNIWGGSLSLGHPFGATGCRLVMAAANRLRKDGGQYALVAACAAGGQGHAMIVEAYPK
